PubChem BioAssay AID1224829, NIAID | 2016
Here is an unselected part of about 3,800 deposited reagents. 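Calls cover raised and lowered translocation; gene median uses one vendor's three siRNAs; qiagen siRNAs acted more weakly than ambion siRNAs.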 Entries without a mark were called inactive.

Screen: 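Secondary check of hits that alter LPS-induced p65 translocation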 (follow-up of hits)
Cell system: mouse RAW264.7 G9 macrophage reporter cells
Knock-down reagent: single siRNA against mouse genes, 100 nM
Time to read-out: 2 days of siRNA knock-down, then 40 min of LPS before fixing
Treatment: LPS (Salmonella minnesota R595) at 10 ng/ml
Detection: 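Imaging of GFP-p65 after 40 min of LPS; nuclear over perinuclear ring intensity ratio, scaled to plate median and non-targeting control wells, given as z-score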
Direction: p65 translocation z-score and gene median z-score, per vendor: higher = more nuclear NF-kappaB p65 after LPS
Rule for the call: 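Active means the replicate-mean z-score lies beyond plus or minus 2, in either direction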
Calls: active = changed p65 translocation (either direction); inactive = no clear change

no.	target	PubChem SID	siRNA vendor or control pool	p65 translocation z-score, replicate mean	p65 translocation z-score, replicate 1	p65 translocation z-score, replicate 2	gene median z-score, per vendor
1	Scart2 (scavenger receptor family member expressed on T cells 2)	SID315488514	ambion single siRNA	4.04 (active)	2.27	5.81	2.69
2	Scart2 (scavenger receptor family member expressed on T cells 2)	SID315488515	ambion single siRNA	-0.539	-1.21	0.128	2.69
3	Scart2 (scavenger receptor family member expressed on T cells 2)	SID315488516	ambion single siRNA	3.59 (active)	4.07	3.1	2.69
4	Scart2 (scavenger receptor family member expressed on T cells 2)	SID315488517	qiagen single siRNA	-2.02 (active)	-0.295	-3.75	-2.09
5	Scart2 (scavenger receptor family member expressed on T cells 2)	SID315488518	qiagen single siRNA	-1.63	-1.63		-2.09
6	Scart2 (scavenger receptor family member expressed on T cells 2)	SID315488519	qiagen single siRNA	-2.54 (active)	-2.54		-2.09
7	Flvcr1 (feline leukemia virus subgroup C cellular receptor 1)	SID315488292	qiagen single siRNA	2.45 (active)	1.32	3.57	1.27
8	Flvcr1 (feline leukemia virus subgroup C cellular receptor 1)	SID315488293	qiagen single siRNA	1.37	1.21	1.53	1.27
9	Flvcr1 (feline leukemia virus subgroup C cellular receptor 1)	SID315488294	qiagen single siRNA	-3.03 (active)	-2.44	-3.62	1.27
10	Or4p18 (olfactory receptor family 4 subfamily P member 18)	SID315488733	ambion single siRNA	-1.02	-0.294	-1.75	-1.02
11	Or4p18 (olfactory receptor family 4 subfamily P member 18)	SID315488734	ambion single siRNA	0.689	0.766	0.613	-1.02
12	Or4p18 (olfactory receptor family 4 subfamily P member 18)	SID315488735	ambion single siRNA	-3.02 (active)	-1.78	-4.26	-1.02
13	Or4p18 (olfactory receptor family 4 subfamily P member 18)	SID315488736	qiagen single siRNA	0.279	-0.704	1.26	-0.256
14	Or4p18 (olfactory receptor family 4 subfamily P member 18)	SID315488737	qiagen single siRNA	-0.255	-0.42	-0.0903	-0.256
15	Or4p18 (olfactory receptor family 4 subfamily P member 18)	SID315488738	qiagen single siRNA	-1.4	-2.71	-0.0909	-0.256
16	Klf12 (Kruppel-like transcription factor 12)	SID315484449	ambion single siRNA	2.73 (active)	3.67	1.79	-1.71
17	Klf12 (Kruppel-like transcription factor 12)	SID315484450	ambion single siRNA	-1.92	-2.66	-1.17	-1.71
18	Klf12 (Kruppel-like transcription factor 12)	SID315484451	ambion single siRNA	-3.73 (active)	-2.25	-5.2	-1.71
19	Hnrnpd (heterogeneous nuclear ribonucleoprotein D)	SID315483801	ambion single siRNA	1.47	-0.0287	2.98	-1.49
20	Hnrnpd (heterogeneous nuclear ribonucleoprotein D)	SID315483802	ambion single siRNA	-1.49	-2.18	-0.808	-1.49
21	Hnrnpd (heterogeneous nuclear ribonucleoprotein D)	SID315483803	ambion single siRNA	-3.7 (active)	-3.86	-3.54	-1.49
22	Hnrnpd (heterogeneous nuclear ribonucleoprotein D)	SID315483804	qiagen single siRNA	1.41	-0.118	2.94	0.337
23	Hnrnpd (heterogeneous nuclear ribonucleoprotein D)	SID315483805	qiagen single siRNA	0.337	0.0548	0.62	0.337
24	Hnrnpd (heterogeneous nuclear ribonucleoprotein D)	SID315483806	qiagen single siRNA	1.16	2.32	-0.00231	0.337
25	Tnfsf14 (tumor necrosis factor (ligand) superfamily, member 14)	SID315485517	ambion single siRNA	2.48 (active)	4.52	0.443	0.555
26	Tnfsf14 (tumor necrosis factor (ligand) superfamily, member 14)	SID315485518	ambion single siRNA	0.793	0.919	0.668	0.555
27	Tnfsf14 (tumor necrosis factor (ligand) superfamily, member 14)	SID315485519	ambion single siRNA	-3.2 (active)	-3.1	-3.29	0.555
28	Tnfsf14 (tumor necrosis factor (ligand) superfamily, member 14)	SID315485520	qiagen single siRNA	-0.493	-1.55	0.569	-1.55
29	Tnfsf14 (tumor necrosis factor (ligand) superfamily, member 14)	SID315485521	qiagen single siRNA	-1.85	-0.651	-3.06	-1.55
30	Tnfsf14 (tumor necrosis factor (ligand) superfamily, member 14)	SID315485522	qiagen single siRNA	-3.37 (active)	-3.37		-1.55
31	Nfyb (nuclear transcription factor-Y beta)	SID315484605	ambion single siRNA	0.902	0.682	1.12	0.362
32	Nfyb (nuclear transcription factor-Y beta)	SID315484606	ambion single siRNA	-1.62	-0.879	-2.36	0.362
33	Nfyb (nuclear transcription factor-Y beta)	SID315484607	ambion single siRNA	0.407	0.771	0.0426	0.362
34	Nfyb (nuclear transcription factor-Y beta)	SID315484608	qiagen single siRNA	1.5	0.674	2.32	2.17
35	Nfyb (nuclear transcription factor-Y beta)	SID315484609	qiagen single siRNA	2.17 (active)	2.21	2.13	2.17
36	Nfyb (nuclear transcription factor-Y beta)	SID315484610	qiagen single siRNA	0.826	-0.773	2.43	2.17

Sorted by “gene median z-score, per vendor” (ascending): 3 of the entries above
target	PubChem SID	siRNA vendor or control pool	p65 translocation z-score, replicate mean	p65 translocation z-score, replicate 1	p65 translocation z-score, replicate 2	gene median z-score, per vendor
Nfyb (nuclear transcription factor-Y beta)	SID315484607	ambion single siRNA	0.407	0.771	0.0426	0.362
Nfyb (nuclear transcription factor-Y beta)	SID315484608	qiagen single siRNA	1.5	0.674	2.32	2.17
Nfyb (nuclear transcription factor-Y beta)	SID315484609	qiagen single siRNA	2.17 (active)	2.21	2.13	2.17

Next entries follow.
no.	target	PubChem SID	siRNA vendor or control pool	p65 translocation z-score, replicate mean	p65 translocation z-score, replicate 1	p65 translocation z-score, replicate 2	gene median z-score, per vendor
37	Tmem139 (transmembrane protein 139)	SID315487530	ambion single siRNA	1.36	1.95	0.778	0.155
38	Tmem139 (transmembrane protein 139)	SID315487531	ambion single siRNA	0.155	-0.0982	0.408	0.155
39	Tmem139 (transmembrane protein 139)	SID315487532	ambion single siRNA	-2.61 (active)	-3.13	-2.09	0.155
40	Tmem139 (transmembrane protein 139)	SID315487533	qiagen single siRNA	0.867	1.3	0.43	0.729
41	Tmem139 (transmembrane protein 139)	SID315487534	qiagen single siRNA	1.93	1.03	2.84	0.729
42	Tmem139 (transmembrane protein 139)	SID315487535	qiagen single siRNA	-0.966	-1.27	-0.657	0.729
43	Abcb10 (ATP-binding cassette, sub-family B member 10)	SID315485949	ambion single siRNA	0.46	0.536	0.384	-2.64
44	Abcb10 (ATP-binding cassette, sub-family B member 10)	SID315485950	ambion single siRNA	-3.84 (active)	-5.65	-2.03	-2.64
45	Abcb10 (ATP-binding cassette, sub-family B member 10)	SID315485951	ambion single siRNA	-3.92 (active)	-4.58	-3.26	-2.64
46	Abcb10 (ATP-binding cassette, sub-family B member 10)	SID315485952	qiagen single siRNA	-0.114	-0.191	-0.0363	-0.114
47	Abcb10 (ATP-binding cassette, sub-family B member 10)	SID315485953	qiagen single siRNA	2.12 (active)	1.85	2.4	-0.114
48	Abcb10 (ATP-binding cassette, sub-family B member 10)	SID315485954	qiagen single siRNA	-3.44 (active)	-3.27	-3.6	-0.114
49	Neil3 (nei like 3 (E. coli))	SID315488397	ambion single siRNA	-2.13 (active)	-2.13		-3.1
50	Neil3 (nei like 3 (E. coli))	SID315488398	ambion single siRNA	-4.06 (active)	-4.06		-3.1
51	Neil3 (nei like 3 (E. coli))	SID315488399	ambion single siRNA				-3.1
52	Neil3 (nei like 3 (E. coli))	SID315488400	qiagen single siRNA	4.05 (active)	3.22	4.87	1.14
53	Neil3 (nei like 3 (E. coli))	SID315488401	qiagen single siRNA	0.502	-0.0334	1.04	1.14
54	Neil3 (nei like 3 (E. coli))	SID315488402	qiagen single siRNA	0.522	-0.191	1.24	1.14
55	Heatr5a (HEAT repeat containing 5A)	SID315488928	ambion single siRNA	-1.11	-0.732	-1.49	-1.75
56	Heatr5a (HEAT repeat containing 5A)	SID315488929	ambion single siRNA	-1.48	-2.18	-0.779	-1.75
57	Heatr5a (HEAT repeat containing 5A)	SID315488930	ambion single siRNA	-2.74 (active)	-2.01	-3.46	-1.75
58	Heatr5a (HEAT repeat containing 5A)	SID315488931	qiagen single siRNA	1.89	1.89		1.84
59	Heatr5a (HEAT repeat containing 5A)	SID315488932	qiagen single siRNA	0.422	-0.474	1.32	1.84
60	Heatr5a (HEAT repeat containing 5A)	SID315488933	qiagen single siRNA	2.82 (active)	1.84	3.8	1.84
61	Arhgef25 (Rho guanine nucleotide exchange factor 25)	SID315485619	ambion single siRNA	1.23	2.33	0.126	-0.816
62	Arhgef25 (Rho guanine nucleotide exchange factor 25)	SID315485620	ambion single siRNA	-2.54 (active)	-2.24	-2.84	-0.816
63	Arhgef25 (Rho guanine nucleotide exchange factor 25)	SID315485621	ambion single siRNA	-0.164	1.43	-1.76	-0.816
64	Arhgef25 (Rho guanine nucleotide exchange factor 25)	SID315485622	qiagen single siRNA	1.59	0.413	2.76	0.85
65	Arhgef25 (Rho guanine nucleotide exchange factor 25)	SID315485623	qiagen single siRNA	2.23 (active)	1.29	3.17	0.85
66	Arhgef25 (Rho guanine nucleotide exchange factor 25)	SID315485624	qiagen single siRNA	-2.6 (active)	-0.714	-4.48	0.85
